Some of the results follow.
Key:
Test in all cases: log2 fold change, soluble protein after heating vs DMSO (PISA); higher = thermal stabilisation; K562 cells, 10 uM, 30 min; active = over 0.2 and 3.5 SD of the protein, either way, in both replicates (recomputed)
[1] = compound: CC[C@@H]1C(=O)N(C)c2cnc(Nc3ccc(C(=O)NC4CCN(C)CC4)cc3OC)nc2N1C1CCCC1
In short: (§1)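 Soluble protein was quantified by TMTpro 16plex LC-MS/MS after channel sums were equalised. It was obtained as the supernatant after 21,000xg for 90 min from pooled aliquots of K562 cells (2×10^6 cells/mL, 10 μM compound, 30 min) heated for 3 min across 48°C-58°C and extracted in PBS with 0.5% NP-40 at 4°C. Thermal stability values are relative to control samples and come from duplicates. They are given as log2 fold changes.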

Sequences of proteins named here, by UniProt entry; tags and fusion partners are left off. A change or cut given only in a name is not applied to a line headed by its entry.
UniProt O94874: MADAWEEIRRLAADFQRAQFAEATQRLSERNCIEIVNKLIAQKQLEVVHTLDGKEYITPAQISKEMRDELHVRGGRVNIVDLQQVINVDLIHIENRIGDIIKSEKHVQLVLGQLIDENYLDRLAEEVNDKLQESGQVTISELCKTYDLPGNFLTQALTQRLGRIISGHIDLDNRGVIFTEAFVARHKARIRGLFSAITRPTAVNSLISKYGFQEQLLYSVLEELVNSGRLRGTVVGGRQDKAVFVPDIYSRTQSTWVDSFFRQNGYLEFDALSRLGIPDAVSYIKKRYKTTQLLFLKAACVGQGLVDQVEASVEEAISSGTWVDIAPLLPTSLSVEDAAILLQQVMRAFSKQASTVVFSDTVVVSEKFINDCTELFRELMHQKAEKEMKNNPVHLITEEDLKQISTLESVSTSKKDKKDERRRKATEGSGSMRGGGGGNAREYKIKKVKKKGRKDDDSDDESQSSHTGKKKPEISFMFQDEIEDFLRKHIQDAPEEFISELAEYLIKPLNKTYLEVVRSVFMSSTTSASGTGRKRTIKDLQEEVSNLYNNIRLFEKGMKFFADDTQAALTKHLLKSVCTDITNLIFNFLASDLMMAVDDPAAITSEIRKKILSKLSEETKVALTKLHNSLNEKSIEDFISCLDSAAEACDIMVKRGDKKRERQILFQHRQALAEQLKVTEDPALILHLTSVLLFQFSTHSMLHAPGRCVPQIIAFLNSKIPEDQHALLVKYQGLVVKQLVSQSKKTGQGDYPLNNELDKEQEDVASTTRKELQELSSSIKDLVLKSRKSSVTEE
UniProt Q8IX04: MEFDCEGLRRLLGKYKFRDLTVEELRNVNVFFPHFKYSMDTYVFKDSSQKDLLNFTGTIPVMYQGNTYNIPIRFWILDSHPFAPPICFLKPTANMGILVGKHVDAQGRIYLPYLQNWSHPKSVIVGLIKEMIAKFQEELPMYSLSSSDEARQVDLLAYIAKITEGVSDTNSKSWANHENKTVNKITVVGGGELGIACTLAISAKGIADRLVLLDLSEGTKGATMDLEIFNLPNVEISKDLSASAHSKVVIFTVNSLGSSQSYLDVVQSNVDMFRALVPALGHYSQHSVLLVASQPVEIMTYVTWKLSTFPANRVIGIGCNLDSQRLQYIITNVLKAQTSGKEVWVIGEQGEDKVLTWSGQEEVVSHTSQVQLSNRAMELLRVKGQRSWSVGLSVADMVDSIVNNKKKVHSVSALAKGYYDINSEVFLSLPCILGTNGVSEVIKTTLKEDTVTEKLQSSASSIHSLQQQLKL
UniProt A0JNW5: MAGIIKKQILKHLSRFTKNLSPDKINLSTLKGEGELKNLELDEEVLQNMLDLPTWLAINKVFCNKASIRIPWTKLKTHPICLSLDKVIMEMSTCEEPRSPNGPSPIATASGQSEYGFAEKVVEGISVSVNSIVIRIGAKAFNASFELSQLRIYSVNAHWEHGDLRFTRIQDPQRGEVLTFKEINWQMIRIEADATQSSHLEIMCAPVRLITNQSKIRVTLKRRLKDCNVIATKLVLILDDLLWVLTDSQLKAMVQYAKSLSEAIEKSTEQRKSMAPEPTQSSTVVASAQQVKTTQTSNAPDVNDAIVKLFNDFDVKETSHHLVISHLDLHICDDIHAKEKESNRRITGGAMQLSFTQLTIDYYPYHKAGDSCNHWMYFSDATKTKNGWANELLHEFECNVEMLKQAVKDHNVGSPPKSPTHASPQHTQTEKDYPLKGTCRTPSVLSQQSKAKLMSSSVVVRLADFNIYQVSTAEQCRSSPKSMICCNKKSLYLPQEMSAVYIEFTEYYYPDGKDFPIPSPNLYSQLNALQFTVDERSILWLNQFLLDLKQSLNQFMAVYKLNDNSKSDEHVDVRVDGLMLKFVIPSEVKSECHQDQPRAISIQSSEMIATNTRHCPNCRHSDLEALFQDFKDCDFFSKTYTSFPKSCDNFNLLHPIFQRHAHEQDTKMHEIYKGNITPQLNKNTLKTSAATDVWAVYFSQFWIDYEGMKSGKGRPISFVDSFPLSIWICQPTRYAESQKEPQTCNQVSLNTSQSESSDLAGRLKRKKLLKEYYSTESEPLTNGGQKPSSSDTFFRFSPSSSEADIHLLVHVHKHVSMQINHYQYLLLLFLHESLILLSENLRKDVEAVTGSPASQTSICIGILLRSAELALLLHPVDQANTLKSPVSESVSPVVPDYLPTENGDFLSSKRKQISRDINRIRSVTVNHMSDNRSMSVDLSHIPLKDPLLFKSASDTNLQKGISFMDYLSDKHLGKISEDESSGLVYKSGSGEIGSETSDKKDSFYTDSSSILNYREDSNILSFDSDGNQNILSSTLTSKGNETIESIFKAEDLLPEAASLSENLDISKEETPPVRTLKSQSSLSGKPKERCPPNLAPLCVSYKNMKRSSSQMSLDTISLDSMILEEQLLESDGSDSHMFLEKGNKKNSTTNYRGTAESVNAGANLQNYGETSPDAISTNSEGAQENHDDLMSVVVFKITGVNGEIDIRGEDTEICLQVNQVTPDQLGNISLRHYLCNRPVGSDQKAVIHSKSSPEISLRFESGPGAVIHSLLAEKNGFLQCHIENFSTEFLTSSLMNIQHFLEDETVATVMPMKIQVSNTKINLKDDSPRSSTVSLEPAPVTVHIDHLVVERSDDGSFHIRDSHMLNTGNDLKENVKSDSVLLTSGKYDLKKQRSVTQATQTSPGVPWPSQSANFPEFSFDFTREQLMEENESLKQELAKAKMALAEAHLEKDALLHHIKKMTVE
UniProt Q9UPU5: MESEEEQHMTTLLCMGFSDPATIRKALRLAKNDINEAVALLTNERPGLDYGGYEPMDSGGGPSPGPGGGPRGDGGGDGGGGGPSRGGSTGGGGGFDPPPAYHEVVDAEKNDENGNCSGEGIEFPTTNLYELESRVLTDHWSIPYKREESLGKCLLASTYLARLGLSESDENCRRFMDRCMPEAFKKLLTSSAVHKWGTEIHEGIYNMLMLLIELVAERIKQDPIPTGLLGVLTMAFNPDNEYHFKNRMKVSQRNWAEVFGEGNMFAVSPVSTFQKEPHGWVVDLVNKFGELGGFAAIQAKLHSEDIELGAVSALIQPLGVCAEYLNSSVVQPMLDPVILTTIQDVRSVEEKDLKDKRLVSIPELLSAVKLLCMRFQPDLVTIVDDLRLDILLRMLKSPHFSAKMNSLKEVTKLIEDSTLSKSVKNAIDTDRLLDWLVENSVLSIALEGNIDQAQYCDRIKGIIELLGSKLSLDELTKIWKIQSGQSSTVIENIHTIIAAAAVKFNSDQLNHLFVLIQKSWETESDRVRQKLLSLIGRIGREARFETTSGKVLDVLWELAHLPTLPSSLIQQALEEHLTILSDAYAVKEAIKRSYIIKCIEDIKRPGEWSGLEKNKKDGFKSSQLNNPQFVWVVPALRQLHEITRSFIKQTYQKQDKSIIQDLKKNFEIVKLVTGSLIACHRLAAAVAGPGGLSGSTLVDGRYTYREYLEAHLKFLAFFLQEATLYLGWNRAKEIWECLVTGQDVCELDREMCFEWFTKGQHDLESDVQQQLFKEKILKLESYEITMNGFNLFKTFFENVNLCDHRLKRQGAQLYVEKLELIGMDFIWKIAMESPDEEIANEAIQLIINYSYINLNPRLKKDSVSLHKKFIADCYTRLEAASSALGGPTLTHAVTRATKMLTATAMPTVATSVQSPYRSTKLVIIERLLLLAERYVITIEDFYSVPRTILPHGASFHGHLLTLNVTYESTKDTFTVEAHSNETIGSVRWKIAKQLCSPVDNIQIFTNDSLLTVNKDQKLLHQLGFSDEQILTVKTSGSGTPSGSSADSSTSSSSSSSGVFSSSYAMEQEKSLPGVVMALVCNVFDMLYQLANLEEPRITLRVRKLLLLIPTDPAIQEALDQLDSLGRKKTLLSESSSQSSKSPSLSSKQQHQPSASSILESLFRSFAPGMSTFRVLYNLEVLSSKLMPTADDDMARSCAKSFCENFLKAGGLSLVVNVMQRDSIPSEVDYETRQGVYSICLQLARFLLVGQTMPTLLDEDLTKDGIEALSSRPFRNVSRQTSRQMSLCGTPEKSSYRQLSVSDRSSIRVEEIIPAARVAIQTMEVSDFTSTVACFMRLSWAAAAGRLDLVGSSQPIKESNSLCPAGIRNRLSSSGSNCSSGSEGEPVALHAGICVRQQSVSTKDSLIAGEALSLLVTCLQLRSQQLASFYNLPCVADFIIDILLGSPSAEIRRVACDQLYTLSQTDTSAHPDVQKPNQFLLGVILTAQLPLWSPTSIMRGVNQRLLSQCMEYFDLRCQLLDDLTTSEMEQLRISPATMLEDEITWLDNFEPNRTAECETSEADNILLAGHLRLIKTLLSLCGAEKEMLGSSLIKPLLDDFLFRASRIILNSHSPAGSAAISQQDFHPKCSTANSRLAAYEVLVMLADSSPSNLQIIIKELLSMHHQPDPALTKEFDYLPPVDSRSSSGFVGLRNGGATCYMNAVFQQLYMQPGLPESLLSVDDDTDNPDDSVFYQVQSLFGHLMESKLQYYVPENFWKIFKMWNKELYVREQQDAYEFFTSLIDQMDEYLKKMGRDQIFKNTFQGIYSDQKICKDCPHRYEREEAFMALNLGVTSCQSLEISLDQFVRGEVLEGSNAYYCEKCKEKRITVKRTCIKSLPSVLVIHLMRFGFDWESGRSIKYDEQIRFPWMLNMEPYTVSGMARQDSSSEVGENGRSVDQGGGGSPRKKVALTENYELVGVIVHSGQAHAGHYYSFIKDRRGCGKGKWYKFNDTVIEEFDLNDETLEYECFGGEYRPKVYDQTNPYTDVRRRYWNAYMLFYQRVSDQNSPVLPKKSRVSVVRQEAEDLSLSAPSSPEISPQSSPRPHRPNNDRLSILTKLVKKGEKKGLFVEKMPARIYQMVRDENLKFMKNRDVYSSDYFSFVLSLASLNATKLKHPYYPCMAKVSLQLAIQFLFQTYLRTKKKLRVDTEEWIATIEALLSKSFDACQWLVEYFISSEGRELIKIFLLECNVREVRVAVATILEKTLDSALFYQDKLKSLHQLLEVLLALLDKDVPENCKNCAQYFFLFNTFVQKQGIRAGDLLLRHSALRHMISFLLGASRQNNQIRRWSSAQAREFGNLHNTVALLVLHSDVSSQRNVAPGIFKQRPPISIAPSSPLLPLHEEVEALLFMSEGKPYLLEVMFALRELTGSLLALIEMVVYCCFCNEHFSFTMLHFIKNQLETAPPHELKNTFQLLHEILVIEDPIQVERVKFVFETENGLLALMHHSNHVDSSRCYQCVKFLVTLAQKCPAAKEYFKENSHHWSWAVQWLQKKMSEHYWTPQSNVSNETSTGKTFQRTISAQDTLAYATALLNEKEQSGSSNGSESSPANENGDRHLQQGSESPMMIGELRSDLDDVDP
UniProt Q5TAP6: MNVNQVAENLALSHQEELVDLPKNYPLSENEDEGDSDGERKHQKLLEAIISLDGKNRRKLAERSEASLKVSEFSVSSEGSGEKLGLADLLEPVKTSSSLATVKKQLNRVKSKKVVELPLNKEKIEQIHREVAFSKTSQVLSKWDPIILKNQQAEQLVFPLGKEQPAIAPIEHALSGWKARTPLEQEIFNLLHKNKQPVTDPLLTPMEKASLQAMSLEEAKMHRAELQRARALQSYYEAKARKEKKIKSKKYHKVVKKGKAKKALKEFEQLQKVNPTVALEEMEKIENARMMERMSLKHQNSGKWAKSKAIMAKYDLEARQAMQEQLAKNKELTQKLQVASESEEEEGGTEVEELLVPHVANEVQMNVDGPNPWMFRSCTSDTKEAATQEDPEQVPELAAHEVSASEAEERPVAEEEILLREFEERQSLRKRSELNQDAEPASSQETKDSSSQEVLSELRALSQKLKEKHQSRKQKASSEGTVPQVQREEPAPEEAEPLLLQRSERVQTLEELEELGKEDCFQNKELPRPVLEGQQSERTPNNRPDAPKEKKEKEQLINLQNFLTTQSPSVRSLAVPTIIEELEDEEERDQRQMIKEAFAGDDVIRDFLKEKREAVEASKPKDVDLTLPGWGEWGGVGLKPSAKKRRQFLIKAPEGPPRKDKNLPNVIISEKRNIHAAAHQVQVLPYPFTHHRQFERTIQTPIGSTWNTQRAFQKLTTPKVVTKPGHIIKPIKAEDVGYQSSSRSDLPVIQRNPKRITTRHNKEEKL
UniProt Q16831: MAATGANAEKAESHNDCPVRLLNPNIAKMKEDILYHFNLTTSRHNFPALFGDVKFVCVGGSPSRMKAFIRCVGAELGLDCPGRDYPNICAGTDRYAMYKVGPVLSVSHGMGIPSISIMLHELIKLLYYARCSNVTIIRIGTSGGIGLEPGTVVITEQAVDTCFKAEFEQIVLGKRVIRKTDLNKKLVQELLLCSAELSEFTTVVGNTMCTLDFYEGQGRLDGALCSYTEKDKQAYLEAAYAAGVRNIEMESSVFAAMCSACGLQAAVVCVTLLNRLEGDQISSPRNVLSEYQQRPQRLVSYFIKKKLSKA
UniProt O14957: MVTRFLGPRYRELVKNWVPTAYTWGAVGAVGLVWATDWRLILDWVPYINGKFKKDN

volasertib = compound: CC[C@@H]1C(=O)N(C)c2cnc(Nc3ccc(C(=O)N[C@H]4CC[C@H](N5CCN(CC6CC6)CC5)CC4)cc3OC)nc2N1C(C)C [volasertib]
In short: as §1

epoxomicin = compound: CC[C@H](C)[C@@H](C(=O)N[C@@H]([C@@H](C)O)C(=O)N[C@@H](CC(C)C)C(=O)[C@]1(CO1)C)NC(=O)[C@H]([C@@H](C)CC)N(C)C(=O)C [epoxomicin]
In short: as §1

[2] = compound: CCn1cc(-c2ccnc3[nH]c(-c4cccc(CN(C)C)c4)cc23)c(-c2ccc(NC(=O)N(C)C)cc2)n1
In short: as §1

[3] = compound: CN(C)CC(=O)Nc1ccc2[nH]c(=O)c3ccccc3c2c1
In short: as §1

[4] = compound: CN1C2=C(C3=C1C(=O)N(N=C3)CC4=CC(=CC=C4)N)SC(=C2)S(=O)C
In short: as §1

[5] = compound: CN1CCC(CNc2ccc3ncc(-c4cccc(OC(F)(F)F)c4)n3n2)CC1
In short: as §1

saracatinib = compound: CN1CCN(CCOc2cc(OC3CCOCC3)c3c(Nc4c(Cl)ccc5c4OCO5)ncnc3c2)CC1 [saracatinib]
In short: as §1

sotrastaurin = compound: CN1CCN(c2nc(C3=C(c4c[nH]c5ccccc45)C(=O)NC3=O)c3ccccc3n2)CC1 [sotrastaurin]
In short: as §1

Tubastatin A = compound: CN1CCc2c(c3ccccc3n2Cc2ccc(C(=O)NO)cc2)C1 [Tubastatin A]
In short: as §1

defactinib = compound: CNC(=O)c1ccc(Nc2ncc(C(F)(F)F)c(NCc3nccnc3N(C)S(C)(=O)=O)n2)cc1 [defactinib]
In short: as §1

rucaparib = compound: CNCc1ccc(-c2[nH]c3cc(F)cc4c3c2CCNC4=O)cc1 [rucaparib]
In short: as §1

[6] = compound: CNc1nc(-c2ccc3c(N)n[nH]c3c2)cc(N2C[C@@H](C(=O)NC3CCCCC3)CC[C@H]2C)n1
In short: as §1

encorafenib = compound: COC(=O)N[C@@H](C)CNc1nccc(-c2cn(C(C)C)nc2-c2cc(Cl)cc(NS(C)(=O)=O)c2F)n1 [encorafenib]
In short: as §1

[7] = compound: COC(=O)[C@H](CCSC)NC(=O)C1=C(C=C(C=C1)NC[C@H](CS)N)C2=CC=CC=C2
In short: as §1

[8] = compound: CC[C@H](C)N1C=C(C2=C(C=C(C=C21)C3=CN=C(C=C3)N4CCNCC4)C(=O)NCC5=C(C=C(NC5=O)C)C)C
In short: as §1

[9] = compound: CCn1c(C(=O)N(C2CC2)C2CC2)cc2c3c(ncn3C)c(Nc3cc(C)n(C)n3)nc21
In short: as §1

rosiglitazone = compound: CN(CCOC1=CC=C(C=C1)C[C@H]2C(=O)NC(=O)S2)C3=CC=CC=N3 (racemic) [rosiglitazone]
In short: as §1

[10] = compound: CNC(=O)C1=CC=CC=C1NC2=NC(=NC=C2Cl)NC3=C(C=C(C=C3)N4CCOCC4)OC
In short: as §1

alvocidib = compound: CN1CC[C@H](c2c(O)cc(O)c3c(=O)cc(-c4ccccc4Cl)oc23)[C@H](O)C1 [alvocidib]
In short: as §1

Measured: log2 fold change

UBXN8 (UniProt O00124)
inactive: [1] 0.081 | volasertib -0.179 | epoxomicin 0.073 | [2] -0.039 | [3] -0.051 | [4] 0.147 | [5] -0.297 | saracatinib -0.054 | sotrastaurin 0.027 | Tubastatin A -0.144 | defactinib 0.065 | [6] -0.112 | encorafenib 0.094 | [7] -0.095
active: rucaparib -0.568

UTP18 (UniProt Q9Y5J1)
inactive: [1] 0.202 | [8] -0.021 | epoxomicin -0.045 | [9] 0.121 | [2] 0.066 | rosiglitazone -0.352 | [5] 0.13 | sotrastaurin -0.036 | [10] 0.173 | rucaparib 0.488 | encorafenib 0.196

USP3 (UniProt Q9Y6I4)
inactive: [1] -0.173 | volasertib -0.325 | [8] 0.04 | epoxomicin -0.083 | [2] -0.037 | [3] 0.063 | [4] -0.077 | saracatinib 0.16 | sotrastaurin 0.074 | Tubastatin A -0.181 | [10] -0.118 | defactinib -0.205 | rucaparib 0.042 | [6] 0.155 | encorafenib -0.008 | [7] -0.092
active: [5] -0.379

UFL1 (UniProt O94874)
active: volasertib -0.351
inactive: [1] -0.063 | [8] 0.086 | epoxomicin 0.004 | [2] -0.023 | [3] 0.054 | [4] 0.04 | [5] -0.089 | saracatinib -0.033 | sotrastaurin -0.035 | Tubastatin A 0.076 | [10] 0.018 | defactinib -0.045 | rucaparib 0.1 | [6] 0 | encorafenib 0.121 | [7] -0.119

UGGT1 (UniProt Q9NYU2)
inactive: [1] -0.01 | volasertib -0.058 | [8] 0.03 | epoxomicin -0.006 | [2] 0.002 | [3] -0.024 | [4] 0.008 | [5] 0.049 | saracatinib -0.006 | sotrastaurin -0.034 | Tubastatin A 0.022 | [10] -0.005 | defactinib 0.019 | rucaparib 0.009 | [6] -0.033 | encorafenib 0.017 | [7] -0.002

Two successive records out of the list so far, quoted:
UTP18 (UniProt Q9Y5J1)
inactive: [1] 0.202 | [8] -0.021 | epoxomicin -0.045 | [9] 0.121 | [2] 0.066 | rosiglitazone -0.352 | [5] 0.13 | sotrastaurin -0.036 | [10] 0.173 | rucaparib 0.488 | encorafenib 0.196

USP3 (UniProt Q9Y6I4)
inactive: [1] -0.173 | volasertib -0.325 | [8] 0.04 | epoxomicin -0.083 | [2] -0.037 | [3] 0.063 | [4] -0.077 | saracatinib 0.16 | sotrastaurin 0.074 | Tubastatin A -0.181 | [10] -0.118 | defactinib -0.205 | rucaparib 0.042 | [6] 0.155 | encorafenib -0.008 | [7] -0.092
active: [5] -0.379

(continued)

UEVLD (UniProt Q8IX04)
inactive: [1] -0.085 | [8] 0.129 | epoxomicin 0.027 | [9] 0.159 | [2] 0.016 | [3] 0.432 | rosiglitazone 0.394 | [4] 0.092 | [5] 0.093 | saracatinib -0.06 | sotrastaurin 0.108 | alvocidib 0.02 | Tubastatin A 0.549 | [10] 0.192 | defactinib -0.032 | rucaparib 0.081 | [6] -0.144 | encorafenib 0.042 | [7] -0.082

URI1 isoform 4 (UniProt O94763)
inactive: [1] -0.016 | [8] 0.245 | epoxomicin 0.218 | [9] -0.198 | [2] 0.225 | [3] 0.081 | rosiglitazone -0.079 | [4] 0.004 | [5] -0.02 | saracatinib 0.083 | sotrastaurin -0.228 | alvocidib 0.027 | Tubastatin A 0.104 | [10] 0.071 | defactinib 0.002 | rucaparib 0.143 | [6] -0.078 | encorafenib 0.101 | [7] 0.155

UHRF1BP1L (UniProt A0JNW5)
inactive: [1] 0.165 | volasertib 0.034 | [8] -0.009 | epoxomicin -0.022 | [2] -0.086 | [3] 0.02 | [4] -0.079 | [5] 0.1 | saracatinib -0.01 | sotrastaurin 0 | Tubastatin A 0.031 | [10] -0.051 | defactinib -0.024 | rucaparib -0.052 | [6] 0.05 | encorafenib -0.02 | [7] -0.029

UGCG (UniProt Q16739)
inactive: [1] 0.006 | volasertib 0.04 | epoxomicin 0.097 | [9] 0 | [3] -0.067 | rosiglitazone -0.03 | [4] -0.155 | saracatinib -0.09 | sotrastaurin -0.127 | alvocidib 0.066 | Tubastatin A 0.01 | [10] 0.075 | defactinib 0.074 | rucaparib 0.108 | [6] 0.052 | encorafenib -0.033 | [7] -0.029

USP25 isoform 3 (UniProt Q9UHP3)
inactive: [1] -0.085 | [8] 0.046 | epoxomicin 0.008 | [2] -0.004 | [3] 0.041 | [4] -0.03 | [5] -0.006 | saracatinib 0.045 | sotrastaurin -0.003 | Tubastatin A 0.061 | [10] 0.044 | defactinib -0.045 | rucaparib 0.019 | [6] -0.028 | encorafenib 0.01 | [7] -0.033
active: volasertib -0.297

UTP4 (UniProt Q969X6)
inactive: [1] 0.032 | volasertib 0.006 | [8] -0.017 | epoxomicin -0.02 | [2] 0.043 | [3] -0.036 | [4] -0.061 | saracatinib 0.05 | sotrastaurin 0.013 | Tubastatin A -0.097 | [10] 0.015 | defactinib 0.178 | rucaparib 0.086 | [6] 0.002 | encorafenib -0.016 | [7] 0.041
active: [5] 0.233

USP24 (UniProt Q9UPU5)
inactive: [1] -0.04 | volasertib -0.1 | [8] -0.047 | epoxomicin 0.073 | [2] -0.062 | [3] 0.055 | [4] -0.123 | [5] 0.137 | saracatinib 0.033 | sotrastaurin 0.092 | Tubastatin A -0.143 | [10] 0.034 | defactinib -0.079 | rucaparib -0.03 | [6] 0.278 | encorafenib 0.048 | [7] -0.034

UTP3 (UniProt Q9NQZ2)
inactive: [1] 0.067 | volasertib -0.012 | epoxomicin -0.376 | [2] 0.236 | [3] -0.052 | [4] 0.165 | [5] 0.092 | saracatinib 0.232 | sotrastaurin -0.1 | Tubastatin A 0.067 | [10] 0.094 | defactinib 0.104 | rucaparib 0.238 | [6] -0.106 | encorafenib 0.23 | [7] 0.051

UTP14C (UniProt Q5TAP6)
inactive: epoxomicin -0.002 | [9] 0.015 | sotrastaurin -0.014 | [10] -0.181

UNG (UniProt P13051)
inactive: epoxomicin -0.024 | [9] 0.049 | [2] -0.106 | [3] 0 | rosiglitazone 0.14 | [4] -0.079 | [5] -0.002 | saracatinib 0.086 | sotrastaurin 0.03 | alvocidib -0.178 | Tubastatin A 0.024 | [10] -0.031 | defactinib -0.043 | [6] -0.008 | [7] 0.033

USP46 (UniProt P62068)
inactive: volasertib 0.086 | epoxomicin -0.062 | [9] 0.092 | [3] -0.092 | sotrastaurin -0.117 | [10] -0.22 | defactinib 0.06 | [7] 0.125

UPP1 (UniProt Q16831)
inactive: volasertib -0.06 | Tubastatin A 0.027

UQCR11 (UniProt O14957)
inactive: [8] -0.089 | [9] 0.059 | [2] -0.09 | [5] 0.26 | [10] 0.033

UNC13A (UniProt Q9UPW8)
inactive: [9] 0.029 | rosiglitazone -0.044 | sotrastaurin -0.05 | Tubastatin A 0.024 | [10] -0.05

USP12 (UniProt O75317)
inactive: [1] 0.115 | [2] 0.158 | [3] -0.026 | [4] 0.066 | [5] 0.017 | saracatinib 0.195 | alvocidib -0.035 | Tubastatin A -0.056 | defactinib -0.013 | rucaparib 0.069 | [6] -0.05 | encorafenib -0.047 | [7] 0.108
